From paper PMC6382169, “Molecular features of steroid-binding antidins and their use for assaying serum progesterone” (PLoS ONE, 2019)
Substitutions are numbered along the chain they refer to. Names may count otherwise.

The chains behind the UniProt entries cited, without tags or fusion partners. Where a name states a change or a piece, a line headed by the entry shows the natural chain unless it says otherwise.
UniProt P02701: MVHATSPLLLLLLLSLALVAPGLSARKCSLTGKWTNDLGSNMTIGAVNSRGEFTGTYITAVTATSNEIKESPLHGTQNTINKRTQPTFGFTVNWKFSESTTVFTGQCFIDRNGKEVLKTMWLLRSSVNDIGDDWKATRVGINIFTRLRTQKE

B1: sbAvd-2: antidin with RMNH at 13-16 and ATVN at positions 35-38; from AvLib-3 (protein, UniProt P02701 25-152, looked up, variant D13R L14M G15N S16H T35A A36T T38N)
Avidin: ARKCSLTGKWTNRMNHNMTIGAVNSRGEFTGTYIATVNATSNEIKESPLHGTQNTINKRTQPTFGFTVNWKFSESTTVFTGQCFIDRNGKEVLKTMWLLRSSVNDIGDDWKATRVGINIFTRLRTQKE
B2: sbAvd-7: antidin with RMNH at 13-16, ASLN at 35-38 and T77A; from AvLib-4, progesterone panning (protein)
chain: B1 Avidin with T36S, V37L, T77A
modifications: left off: 6xHis, C-terminal, state not stated
notes: antidin with RMNH at 13-16, ASLN at 35-38 and T77A; from AvLib-4, progesterone panning

Experiment: Antigen EIA microplate assay for determination of progesterone concentration
Set-up: species or system dog
Settings: for progesterone concentration range detected: phosphate buffer and progesterone-spiked serum samples; for lowest progesterone concentration detected: serum samples

Molecule	progesterone concentration range detected [ng/mL]	lowest progesterone concentration detected
B1	31.3 to 500	~ 30 ng/ml
B2	31.3 to 500	~ 30 ng/ml
